Test results from patent US20240299593A1, “SYSTEMS AND METHODS FOR GENERATION OF HYPERPOLARIZED MATERIALS” (NVISION IMAGING TECHNOLOGIES GMBH, priority 2021, published 2024).

Experiment: Liquid-liquid purification system, Example 1 (samples of phases analyzed)
Conditions: for concentration in final samples: Vessel 3, after evaporation with nitrogen gas flushing

Compound	concentration in final samples [mM]	concentration in the aqueous phase (Vessel 1, after first washing step) [mM]
CC(C)=O [Acetone]	200 to 400	–
CCOCC [Diethyl ether]	10 to 50	–
CC(=O)C(=O)[O-].[Na+] [sodium pyruvate]	70 to 100	70 to 100
